For at least one compound, name, drawing or mass did not settle the structure.
Tests used:
[1] = tested on: newborn cord blood and adult peripheral blood; test: TLR ligand-induced TNF-α release in whole blood ex vivo (ELISA); format: cell-based, human
Description: Peripheral blood was collected from healthy adult volunteers (N=26 individual volunteers; mean age 27 years; 45% male, 55% female) and newborn cord blood (N=63; mean gestational age 39 weeks; 43% male, 57% female) collected immediately after cesarean section delivery (epidural anesthesia) of the placenta or from the umbilical cord immediately after vaginal birth but prior to delivery of the placenta. Births at which antibiotics were administered during labor and/or delivery, and births to HIV-positive mothers were excluded. Human experimentation guidelines of the US Department of Health and Human Services and the Brigham & Women's Hospital were observed, following protocols approved by the local Institutional Review Board. Blood was anticoagulated with 129 mM sodium citrate (Becton Dickinson, Franklin Lakes, N.J.). Hemocytes were collected by centrifugation of blood, followed by washing three times with Hank's Balanced Salt Solution (HBSS) buffer without magnesium or calcium (Gibco BRL, Grand Island, N.Y.) and then resuspension in either autologous or heterologous 100% plasma.
TLR ligands included the synthetic triacylated BLP (tBLP) Pam3-CSSNA (Bachem Bioscience, King of Prussia, Pa.) corresponding to the N-terminus of a BLP from E. coli B/r (Biesert et al. 1987. Eur J Biochem 162:651), the synthetic diacylated BLP macrophage-activating lipopeptide-2 (MALP; S-(2,3-bisAcyloxypropyl)-cysteine-[…] (SEQ ID NO: 5); Alexis Biochemicals, Lausen, Switzerland) from Mycoplasma fermentans (Muhlradt et al. 1997. J Exp Med. 185:1951), ultrapure Re 595 LPS from Salmonella minnesota (List Biologicals, Campbell, Calif.), and the IRM compounds imiquimod (3M Pharmaceuticals, Northridge, Calif.), and resiquimod (InvivoGen, San Diego, Calif.). Specificity of individual TLR ligands for their cognate receptors was confirmed using either NF-kB luciferase reporter and TLR co-transfected Human Embryonic Kidney (HEK) 293 cells or a neutralizing mAb to TLR2 (Levy, O. et al. 2003. Infect Immun 71:6344), as previously described. […]

[2] = tested on: neonatal and adult monocytes; test: IL-12 p70 release from adherent monocytes in autologous serum (ELISA); format: cell-based, human; conditions: 4 h or 24 h exposure, FIGS. 14A-14C
[3] = tested on: neonatal myeloid dendritic cells (mDCs); test: CD40 expression on myeloid dendritic cells in whole blood (flow cytometry); format: cell-based, human; conditions: imiquimod 250 μM, resiquimod 50 μM, 19 hours; FIGS. 15A-15D
Description: After lysis of red blood cells and fixation, mDCs were identified as lint-/HLA-DR+/CD11c+ cells using four color flow cytometry (BD BioSciences) and CD40 was measured using a PE-conjugated mAb.
Newborn cord or adult peripheral blood was incubated with TLR agonists at 37° C. for 19 hours. mDCs were identified by flow cytometry and the level of expression of CD40 was measured using a PE-conjugated mAb.
CD40 expression on mDCs was studied in whole newborn cord blood, in comparison to those of adult peripheral blood, using four-color flow cytometry (BD Biosciences). mDCs were identified as lineage 1-/HLA-DR+/CD11c+ cells. Upregulation of surface CD40 expression was measured using a phycoerythrin-conjugated anti-CD40 mAb.

TLR8 and TLR7 = conditions: cited from earlier work

## CCOCc1nc2c(N)nc3ccccc3c2n1CC(C)(C)O [resiquimod]
[1]; 5-hour incubation, FIGS. 1A-1E
  ligand-induced TNF-α release in newborn cord blood compared with adult peripheral blood: preserved
[1]; cord blood from both Caesarian-section and vaginal deliveries, 5 hours, FIGS. 2A-2C
  ligand-induced TNF-α release in cord blood compared with adult controls: preserved
[1]; time course, FIGS. 3A-3C
  magnitude and kinetics of ligand-induced TNF-α release in newborn cord vs. adult peripheral blood: equivalent
[2]
  IL-12 release from neonatal and adult monocytes: induces substantial IL-12 release
[3]
  upregulation of CD40 expression in neonatal mDCs: induces upregulation
TLR8 and TLR7
  TLR agonism (which TLR): agonist at both TLR7 and TLR 8

Reference: US20120128715A1, “METHOD FOR STIMULATING THE IMMUNE RESPONSE OF NEWBORNS” (3M INNOVATIVE PROPERTIES COMPANY, priority 2004, published 2012)
